According to the supplement of paper PMC4604168 (melanoma cell lines):
The other results are listed elsewhere or left out. Single values are uncertain, as repeats are few or missing.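 The apoptosis fraction was the count of cleaved-PARP antibody-stained nuclei relative to all DNA-stained nuclei, imaged in 1,536-well plates. Screening doses were set so most cells survived, and baseline and induced cleaved-PARP levels vary greatly across cell lines.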

Legend:
Test in all cases: cleaved PARP positive nuclei fraction relative to DMSO control; melanoma cells; higher = more apoptosis
Conditions in all cases: library dose: low library concentration; 72 h
501Mel = test system: 501Mel
A101D = test system: A101D
A2058 = test system: A2058
A375 = test system: A375
C32 = test system: C32
CBRC008 = test system: CBRC008 (line from a melanoma biopsy)
CBRC013 = test system: CBRC013 (line from a melanoma biopsy)
CBRC014 = test system: CBRC014 (line from a melanoma biopsy)
CBRC016 = test system: CBRC016 (line from a melanoma biopsy)
CBRC017 = test system: CBRC017 (line from a melanoma biopsy)
COLO792 = test system: COLO792
COLO800 = test system: COLO800
COLO829 = test system: COLO829
G361 = test system: G361
IPC-298 = test system: IPC-298
IST-MEL1 = test system: IST-MEL1
LB2518-MEL = test system: LB2518-MEL
LOXIMVI = test system: LOXIMVI
MEL-HO = test system: MEL-HO

SMILES | cleaved PARP positive nuclei fraction (501Mel) [%] | cleaved PARP positive nuclei fraction (A101D) [%] | cleaved PARP positive nuclei fraction (A2058) [%] | cleaved PARP positive nuclei fraction (A375) [%] | cleaved PARP positive nuclei fraction (C32) [%] | cleaved PARP positive nuclei fraction (CBRC008) [%] | cleaved PARP positive nuclei fraction (CBRC013) [%] | cleaved PARP positive nuclei fraction (CBRC014) [%] | cleaved PARP positive nuclei fraction (CBRC016) [%] | cleaved PARP positive nuclei fraction (CBRC017) [%] | cleaved PARP positive nuclei fraction (COLO792) [%] | cleaved PARP positive nuclei fraction (COLO800) [%] | cleaved PARP positive nuclei fraction (COLO829) [%] | cleaved PARP positive nuclei fraction (G361) [%] | cleaved PARP positive nuclei fraction (IPC-298) [%] | cleaved PARP positive nuclei fraction (IST-MEL1) [%] | cleaved PARP positive nuclei fraction (LB2518-MEL) [%] | cleaved PARP positive nuclei fraction (LOXIMVI) [%] | cleaved PARP positive nuclei fraction (MEL-HO) [%]
CC[C@]1(O)C[C@H]2CN(CCc3c([nH]c4ccccc34)[C@@](C(=O)OC)(c3cc4c(cc3OC)N(C=O)[C@H]3[C@@](O)(C(=O)OC)[C@H](OC(C)=O)[C@]5(CC)C=CCN6CC[C@]43[C@@H]65)C2)C1 [vincristine] + O=C(CCCCCCC(=O)Nc1ccccc1)NO [vorinostat] (first compound 0.0001 µM, partner dose 0.08 µM) | 226 | 61 | 64.2 | 145 | 224 | 196 | 112 | 82.5 | 253 | 116 | 184 | 55.8 | 74.3 | 119 | 49.4 | 106 | 53.1 | 95.4 | 202
Cc1cn(-c2cc(NC(=O)c3ccc(C)c(Nc4nccc(-c5cccnc5)n4)c3)cc(C(F)(F)F)c2)cn1 [nilotinib] + CC(C)(C)c1cnc(CSc2cnc(NC(=O)C3CCNCC3)s2)o1 [SNS-032] (first compound 0.2 µM, partner dose 0.01 µM) | 77.3 | 225 | 237 | 101 | 118 | 160 | 114 | 80.1 | 123 | 83.6 | 136 | 86.8 | 76.5 | 75.7 | 88.1 | 237 | 181 | 224 | 99.8
N#CC[C@H](C1CCCC1)n1cc(-c2ncnc3[nH]ccc23)cn1 [ruxolitinib] + CC1(C)NC(=O)N(c2ccc([N+](=O)[O-])c(C(F)(F)F)c2)C1=O [nilutamide] (first compound 1 µM, partner dose 1 µM) | 90 | 79.7 | 70.9 | 78.7 | 76.4 | 286 | 130 | 95 | 70.1 | 87.8 | 55.4 | 77.8 | 43.2 | 65.7 | 92.6 | 160 | 123 | 40.2 | 63.8
CCCCCCCCCCCCCCCCCCOP(=O)([O-])OC1CC[N+](C)(C)CC1 [Perifosine] + Cc1ccc(NC(=O)c2cccc(N(C)C)c2)cc1NC(=O)c1ccc(O)cc1 [ZM336372] (first compound 0.4 µM, partner dose 2 µM) | 97.7 | 94 | 189 | 49.2 | 76 | 195 | 115 | 96.5 | 82.6 | 123 | 160 | 49.5 | 61.5 | 179 | 27.3 | 199 | 134 | 124 | 74.5
COc1cc([C@@H]2c3cc4c(cc3[C@@H](O[C@@H]3O[C@@H]5CO[C@@H](C)O[C@H]5[C@H](O)[C@H]3O)[C@H]3COC(=O)[C@H]23)OCO4)cc(OC)c1O [etoposide] + CC1(C)NC(=O)N(c2ccc([N+](=O)[O-])c(C(F)(F)F)c2)C1=O [nilutamide] (first compound 0.02 µM, partner dose 1 µM) | 93.5 | 83.4 | 151 | 48.3 | 128 | 149 | 61.5 | 65.4 | 52.2 | 105 | 294 | 128 | 85.6 | 51.2 | 32.1 | 90.8 | 98.8 | 91.5 | 34.2
Cc1ccc(Nc2nccc(N(C)c3ccc4c(C)n(C)nc4c3)n2)cc1S(N)(=O)=O [Pazopanib] + OCCn1cc(-c2cnc3nnn(Cc4ccc5ncccc5c4)c3n2)cn1 [PF04217903] (first compound 0.4 µM, partner dose 1 µM) | 86.3 | 42.1 | 72.2 | 150 | 58.7 | 61.3 | 113 | 73.4 | 55.9 | 85.5 | 111 | 61.7 | 61.9 | 92.6 | 57.9 | 60.1 | 225 | 108 | 68
CCCCCCCCCCCCCCCCCCOP(=O)([O-])OC1CC[N+](C)(C)CC1 [Perifosine] + C=CCn1c(=O)c2cnc(Nc3ccc(N4CCN(C)CC4)cc3)nc2n1-c1cccc(C(C)(C)O)n1 [MK1775] (first compound 0.4 µM, partner dose 0.02 µM) | 92.6 | 78.2 | 176 | 2680 | 205 | 45.2 | 112 | 95.4 | 210 | 95 | 79.2 | 55.3 | 62 | 84.3 | 97.3 | 150 | 111 | 294 | 39
Cc1cn(-c2cc(NC(=O)c3ccc(C)c(Nc4nccc(-c5cccnc5)n4)c3)cc(C(F)(F)F)c2)cn1 [nilotinib] + Cc1cc(N2CCOCC2)cc2[nH]c(-c3c(NC[C@@H](O)c4cccc(Cl)c4)cc[nH]c3=O)nc12 [BMS536924] (first compound 0.2 µM, partner dose 0.2 µM) | 90.4 | 83.7 | 79.5 | 149 | 204 | 356 | 127 | 97.1 | 105 | 91.1 | 130 | 84.9 | 76.3 | 146 | 49.3 | 50.4 | 111 | 163 | 77.2
O=c1[nH]nc(Sc2ncc([N+](=O)[O-])s2)n1-c1ccc2c(c1)OCCO2 + CN(NC(=O)CC(=O)NN(C)C(=S)c1ccccc1)C(=S)c1ccccc1 [STA4783] (first compound 0.2 µM, partner dose 0.006 µM) | 190 | 189 | 101 | 855 | 130 | 2270 | 125 | 444 | 166 | 149 | 66.3 | 139 | 198 | 101 | 388 | 155 | 259 | 78.5 | 71.7
Cc1cc(Nc2cc(N3CCN(C)CC3)nc(Sc3ccc(NC(=O)C4CC4)cc3)n2)n[nH]1 [Tozasertib] + NCC(=O)Nc1ccc(-n2nc(C(F)(F)F)cc2-c2ccc3c(ccc4ccccc43)c2)cc1 [OSU03012] (first compound 0.006 µM, partner dose 1 µM) | 159 | 41.6 | 84.7 | 963 | 116 | 58 | 155 | 93.5 | 44.1 | 274 | 56.1 | 51.8 | 247 | 73.9 | 62.4 | 135 | 54.9 | 361 | 43.5
O=C(/C=C/c1cccnc1)NCCCCC1CCN(C(=O)c2ccccc2)CC1 + CO[C@@H]1[C@H](N(C)C(=O)c2ccccc2)C[C@H]2O[C@]1(C)n1c3ccccc3c3c4c(c5c6ccccc6n2c5c31)C(=O)NC4 [Midostaurin] (first compound 0.01 µM, partner dose 0.08 µM) | 174 | 58.1 | 80.2 | 155 | 224 | 3610 | 99.5 | 107 | 825 | 1500 | 808 | 72.8 | 397 | 3000 | 516 | 110 | 597 | 139 | 486
CCCCCCCCCCCCCCCCCCOP(=O)([O-])OC1CC[N+](C)(C)CC1 [Perifosine] + Cc1cc(N2CCOCC2)cc2[nH]c(-c3c(NC[C@@H](O)c4cccc(Cl)c4)cc[nH]c3=O)nc12 [BMS536924] (first compound 0.4 µM, partner dose 0.2 µM) | 245 | 251 | 187 | 579 | 98.8 | 70.2 | 179 | 100 | 47.6 | 92.2 | 108 | 104 | 90 | 78.2 | 61.2 | 196 | 79.1 | 134 | 64.7
CCCCCCCCCCCCCCCCCCOP(=O)([O-])OC1CC[N+](C)(C)CC1 [Perifosine] + OCCn1cc(-c2cnc3nnn(Cc4ccc5ncccc5c4)c3n2)cn1 [PF04217903] (first compound 0.4 µM, partner dose 1 µM) | 267 | 347 | 299 | 3600 | 109 | 124 | 97.8 | 443 | 221 | 111 | 275 | 83.1 | 143 | 136 | 97.2 | 53.9 | 238 | 177 | 41.1
O=C(Nc1cc(C(F)(F)F)cc(C(F)(F)F)c1)c1cc(Cl)ccc1O + O=C(Nc1cccc(Cl)c1)Nc1ncc(CCNc2ncnc3ccsc23)s1 [SNS314] (first compound 0.016 µM, partner dose 0.0008 µM) | 65.5 | 296 | 98.9 | 42.3 | 58.1 | 122 | 92.1 | 80.7 | 165 | 115 | 141 | 52.5 | 53.6 | 93.1 | 158 | 169 | 202 | 105 | 53.4
Cc1cn(-c2cc(NC(=O)c3ccc(C)c(Nc4nccc(-c5cccnc5)n4)c3)cc(C(F)(F)F)c2)cn1 [nilotinib] + Cc1ccc(NC(=O)c2cccc(N(C)C)c2)cc1NC(=O)c1ccc(O)cc1 [ZM336372] (first compound 0.2 µM, partner dose 2 µM) | 222 | 78.2 | 192 | 112 | 171 | 182 | 92 | 120 | 84.8 | 107 | 73.1 | 15.2 | 121 | 73.5 | 103 | 101 | 93.1 | 59.1 | 127
O=c1[nH]nc(Sc2ncc([N+](=O)[O-])s2)n1-c1ccc2c(c1)OCCO2 + NCC(=O)Nc1ccc(-n2nc(C(F)(F)F)cc2-c2ccc3c(ccc4ccccc43)c2)cc1 [OSU03012] (first compound 0.2 µM, partner dose 1 µM) | 288 | 76 | 84.6 | 2970 | 58 | 50.1 | 188 | 66.9 | 146 | 93.5 | 75.2 | 180 | 108 | 101 | 71.9 | 101 | 170 | 159 | 72.5

Looked up one by one from above (two):
SMILES | cleaved PARP positive nuclei fraction (501Mel) [%] | cleaved PARP positive nuclei fraction (A101D) [%] | cleaved PARP positive nuclei fraction (A2058) [%] | cleaved PARP positive nuclei fraction (A375) [%] | cleaved PARP positive nuclei fraction (C32) [%] | cleaved PARP positive nuclei fraction (CBRC008) [%] | cleaved PARP positive nuclei fraction (CBRC013) [%] | cleaved PARP positive nuclei fraction (CBRC014) [%] | cleaved PARP positive nuclei fraction (CBRC016) [%] | cleaved PARP positive nuclei fraction (CBRC017) [%] | cleaved PARP positive nuclei fraction (COLO792) [%] | cleaved PARP positive nuclei fraction (COLO800) [%] | cleaved PARP positive nuclei fraction (COLO829) [%] | cleaved PARP positive nuclei fraction (G361) [%] | cleaved PARP positive nuclei fraction (IPC-298) [%] | cleaved PARP positive nuclei fraction (IST-MEL1) [%] | cleaved PARP positive nuclei fraction (LB2518-MEL) [%] | cleaved PARP positive nuclei fraction (LOXIMVI) [%] | cleaved PARP positive nuclei fraction (MEL-HO) [%]
CCCCCCCCCCCCCCCCCCOP(=O)([O-])OC1CC[N+](C)(C)CC1 [Perifosine] + Cc1cc(N2CCOCC2)cc2[nH]c(-c3c(NC[C@@H](O)c4cccc(Cl)c4)cc[nH]c3=O)nc12 [BMS536924] (first compound 0.4 µM, partner dose 0.2 µM) | 245 | 251 | 187 | 579 | 98.8 | 70.2 | 179 | 100 | 47.6 | 92.2 | 108 | 104 | 90 | 78.2 | 61.2 | 196 | 79.1 | 134 | 64.7
O=C(/C=C/c1cccnc1)NCCCCC1CCN(C(=O)c2ccccc2)CC1 + CO[C@@H]1[C@H](N(C)C(=O)c2ccccc2)C[C@H]2O[C@]1(C)n1c3ccccc3c3c4c(c5c6ccccc6n2c5c31)C(=O)NC4 [Midostaurin] (first compound 0.01 µM, partner dose 0.08 µM) | 174 | 58.1 | 80.2 | 155 | 224 | 3610 | 99.5 | 107 | 825 | 1500 | 808 | 72.8 | 397 | 3000 | 516 | 110 | 597 | 139 | 486
